# The other results are listed elsewhere or left out.
# Key:
# Experiment in all cases: glycan array binding signal (z-score within array); higher = stronger binding
# Settings in all cases: glycan notation: IUPAC condensed, linker removed
# [1] = target: Gal(b1-3)GlcNAc(a1-6)Gal(b1-4)GlcNAc
# In short: (§1)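 The binding signal is a Z-score computed within each array and averaged over linkers. Arrays of the same protein sequence at different concentrations or buffers were also averaged together. Data originate from 3228 arrays in the Consortium for Functional Glycomics database, kept only where the protein sequence was available.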
# [2] = target: Gal(b1-3)GlcNAc(b1-2)Man(a1-3)[Gal(b1-3)GlcNAc(b1-2)Man(a1-6)]Man(b1-4)GlcNAc(b1-4)GlcNAc
# In short: as §1
# [3] = target: Gal(b1-3)GlcNAc(b1-2)Man(a1-3)[Gal(b1-3)GlcNAc(b1-2)Man(a1-6)]Man(b1-4)GlcNAc(b1-4)[Fuc(a1-6)]GlcNAc
# In short: as §1
# [4] = target: Gal(b1-3)GlcNAc(b1-2)[Gal(b1-3)GlcNAc(b1-6)]Man(a1-6)[Gal(b1-3)GlcNAc(b1-2)Man(a1-3)]Man(b1-4)GlcNAc(b1-4)GlcNAc
# In short: as §1
# [5] = target: Gal(b1-3)GlcNAc(b1-3)Gal(b1-3)GlcNAc
# In short: as §1
# [6] = target: Gal(b1-3)GlcNAc(b1-3)Gal(b1-4)Glc
# In short: as §1
# [7] = target: Gal(b1-3)GlcNAc(b1-3)Gal(b1-4)GlcNAc
# In short: as §1
# [8] = target: Gal(b1-3)GlcNAc(b1-3)Gal(b1-4)GlcNAc(b1-6)[Gal(b1-3)GlcNAc(b1-3)]Gal(b1-4)Glc
# In short: as §1
# [9] = target: Gal(b1-3)GlcNAc(b1-3)Gal(b1-4)[Fuc(a1-3)]GlcNAc(b1-6)[Gal(b1-3)GlcNAc(b1-3)]Gal(b1-4)Glc
# In short: as §1
# [10] = target: Gal(b1-3)GlcNAc(b1-3)GalNAc
# In short: as §1
# [11] = target: Gal(b1-3)GlcNAc(b1-6)Gal(b1-4)GlcNAc
# In short: as §1
# [12] = target: Gal(b1-3)[Fuc(a1-4)]GlcNAc
# In short: as §1
# [13] = target: Gal(b1-3)[Fuc(a1-4)]GlcNAc(b1-2)Man(a1-3)[Gal(b1-3)[Fuc(a1-4)]GlcNAc(b1-2)Man(a1-6)]Man(b1-4)GlcNAc(b1-4)GlcNAc
# In short: as §1
# [14] = target: Gal(b1-3)[Fuc(a1-4)]GlcNAc(b1-2)Man(a1-3)[Gal(b1-3)[Fuc(a1-4)]GlcNAc(b1-2)Man(a1-6)]Man(b1-4)GlcNAc(b1-4)[Fuc(a1-6)]GlcNAc
# In short: as §1
# [15] = target: Gal(b1-3)[Fuc(a1-4)]GlcNAc(b1-3)Gal(b1-3)[Fuc(a1-4)]GlcNAc
# In short: as §1
# [16] = target: Gal(b1-3)[Fuc(a1-4)]GlcNAc(b1-3)Gal(b1-4)GlcNAc
# In short: as §1
# [17] = target: Gal(b1-3)[Fuc(a1-4)]GlcNAc(b1-3)Gal(b1-4)[Fuc(a1-3)]GlcNAc
# In short: as §1
# [18] = target: Gal(b1-3)[GlcNAc(b1-6)]GalNAc
# In short: as §1
# [19] = target: Gal(b1-3)[Neu5Ac(a2-6)]GalNAc
# In short: as §1
# [20] = target: Gal(b1-3)[Neu5Ac(a2-6)]GlcNAc(b1-6)Gal(b1-4)Glc
# In short: as §1
# [21] = target: Gal(b1-3)[Neu5Ac(b2-6)]GalNAc
# In short: as §1
# [22] = target: Gal(b1-4)Gal
# In short: as §1
# [23] = target: Gal(b1-4)GalNAc(a1-3)[Fuc(a1-2)]Gal(b1-4)GlcNAc
# In short: as §1
# [24] = target: Gal(b1-4)GalNAc(b1-3)[Fuc(a1-2)]Gal(b1-4)GlcNAc
# In short: as §1
# [25] = target: Gal(b1-4)Glc
# In short: as §1
# [26] = target: Gal(b1-4)Glc6S
# In short: as §1
# [27] = target: Gal(b1-4)GlcNAc
# In short: as §1
# [28] = target: Gal(b1-4)GlcNAc(a1-6)Gal(b1-4)GlcNAc
# In short: as §1
# [29] = target: Gal(b1-4)GlcNAc(b1-2)Man
# In short: as §1
# [30] = target: Gal(b1-4)GlcNAc(b1-2)Man(a1-3)Man(b1-4)GlcNAc(b1-4)GlcNAc
# In short: as §1
# [31] = target: Gal(b1-4)GlcNAc(b1-2)Man(a1-3)[Gal(b1-4)GlcNAc(b1-2)Man(a1-6)]Man(b1-4)GlcNAc(b1-4)GlcNAc
# In short: as §1
# [32] = target: Gal(b1-4)GlcNAc(b1-2)Man(a1-3)[Gal(b1-4)GlcNAc(b1-2)Man(a1-6)]Man(b1-4)GlcNAc(b1-4)[Fuc(a1-6)]GlcNAc
# In short: as §1
# [33] = target: Gal(b1-4)GlcNAc(b1-2)Man(a1-3)[Gal(b1-4)GlcNAc(b1-2)][GlcNAc(b1-4)]Man(b1-4)GlcNAc(b1-4)GlcNAc
# In short: as §1
# [34] = target: Gal(b1-4)GlcNAc(b1-2)Man(a1-3)[GlcNAc(b1-2)Man(a1-6)]Man(b1-4)GlcNAc(b1-4)GlcNAc
# In short: as §1
# [35] = target: Gal(b1-4)GlcNAc(b1-2)Man(a1-3)[Man(a1-6)]Man(b1-4)GlcNAc(b1-4)GlcNAc
# In short: as §1
# [36] = target: Gal(b1-4)GlcNAc(b1-2)Man(a1-6)Man(b1-4)GlcNAc(b1-4)GlcNAc
# In short: as §1
# [37] = target: Gal(b1-4)GlcNAc(b1-2)Man(a1-6)[GlcNAc(b1-2)Man(a1-3)]Man(b1-4)GlcNAc(b1-4)GlcNAc
# In short: as §1
binder,measurement,setting,value
"Layilin (Mus musculus), Q8C351 (protein) MQPGAALQAMLLAVLLAKPRDSKGRLLSASDLDPRGGQLVCRGGTRRPCYKVIYFHDAFQRLNFEEAKETCMEDGGQLVSIETEDEQRLIEKFIENLLASDGDFWIGLKRLEEKQSNNTACQDLYAWTDGSTSQFRNWYVDEPSCGSEVCVVMYHQPSAPPGIGGSYMFQWNDDRCNMKNNFICKYHDDKPSTTPSIWPGGEATEPATPLLPEETQKEDTKETFKERREAALNLAYILIPSIPLFLLLVVTSAVCWVWICRRKREQTDPSTKEQHTIWPTPRQENSPNLDVYNVIRKQSEADLAEPRPDLKNISFRVCSGEAMPDDMSCDYENIAVNPSESGFVTLASMESGFVTNDIYEFSPDRMGRSKESGWVENEIYY",glycan array binding signal (z-score),[1],-1.02
same,glycan array binding signal (z-score),[2],0.423
same,glycan array binding signal (z-score),[3],2.69
same,glycan array binding signal (z-score),[4],-0.793
same,glycan array binding signal (z-score),[5],-1.2
same,glycan array binding signal (z-score),[6],-0.339
same,glycan array binding signal (z-score),[7],-0.708
same,glycan array binding signal (z-score),[8],-0.423
same,glycan array binding signal (z-score),[9],-0.086
same,glycan array binding signal (z-score),[10],0.538
same,glycan array binding signal (z-score),[11],-0.744
same,glycan array binding signal (z-score),[12],0.542
same,glycan array binding signal (z-score),[13],-0.909
same,glycan array binding signal (z-score),[14],7.71
same,glycan array binding signal (z-score),[15],-0.784
same,glycan array binding signal (z-score),[16],0.165
same,glycan array binding signal (z-score),[17],0.595
same,glycan array binding signal (z-score),[18],-0.792
same,glycan array binding signal (z-score),[19],-0.348
same,glycan array binding signal (z-score),[20],1.16
same,glycan array binding signal (z-score),[21],0.228
same,glycan array binding signal (z-score),[22],-0.668
same,glycan array binding signal (z-score),[23],-0.623
same,glycan array binding signal (z-score),[24],0.059
same,glycan array binding signal (z-score),[25],-0.041
same,glycan array binding signal (z-score),[26],-0.075
same,glycan array binding signal (z-score),[27],-0.317
same,glycan array binding signal (z-score),[28],0.234
same,glycan array binding signal (z-score),[29],-0.817
same,glycan array binding signal (z-score),[30],-0.41
same,glycan array binding signal (z-score),[31],-0.504
same,glycan array binding signal (z-score),[32],1.21
same,glycan array binding signal (z-score),[33],-0.483
same,glycan array binding signal (z-score),[34],-1.18
same,glycan array binding signal (z-score),[35],-0.327
same,glycan array binding signal (z-score),[36],-0.753
same,glycan array binding signal (z-score),[37],-0.009

# No new results follow: entries from further up.
binder,measurement,setting,value
"Layilin (Mus musculus), Q8C351 (protein) MQPGAALQAMLLAVLLAKPRDSKGRLLSASDLDPRGGQLVCRGGTRRPCYKVIYFHDAFQRLNFEEAKETCMEDGGQLVSIETEDEQRLIEKFIENLLASDGDFWIGLKRLEEKQSNNTACQDLYAWTDGSTSQFRNWYVDEPSCGSEVCVVMYHQPSAPPGIGGSYMFQWNDDRCNMKNNFICKYHDDKPSTTPSIWPGGEATEPATPLLPEETQKEDTKETFKERREAALNLAYILIPSIPLFLLLVVTSAVCWVWICRRKREQTDPSTKEQHTIWPTPRQENSPNLDVYNVIRKQSEADLAEPRPDLKNISFRVCSGEAMPDDMSCDYENIAVNPSESGFVTLASMESGFVTNDIYEFSPDRMGRSKESGWVENEIYY",glycan array binding signal (z-score),[6],-0.339
same,glycan array binding signal (z-score),[7],-0.708
same,glycan array binding signal (z-score),[8],-0.423
